Values from PubChem BioAssay AID1224828 (NIAID, 2016)

Assay: 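Knock-downs that increase or decrease LPS-induced p65 nuclear translocation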 (primary screen)
Cells: mouse RAW264.7 G9 macrophage reporter cells (GFP-p65, Tnf promoter-mCherry)
Knock-down reagent: siRNA pool against mouse genes, 100 nM
Timing: 2 days siRNA transfection, then 40 min LPS before fixation
Conditions: LPS (Salmonella minnesota R595) at 10 ng/ml
Detection: 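Microscopy ratio of nuclear to perinuclear-ring GFP-p65 signal, scaled to the plate median; gene score is the average of two replicate robust z-scores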
Direction: p65 translocation robust z-score: higher = more nuclear NF-kappaB p65 after LPS than the plate median; nuclear/cytoplasmic p65 ratio: higher = more nuclear NF-kappaB p65
Call rule: 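Called active when z exceeds 3.3 or falls under -1.56 (median of Tlr4 controls), giving activity score of at least 50; no calls for control wells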
Meaning of the calls: active = hit (p65 shift raised or lowered); inactive = no clear change
The whole screen tested about 17,000 reagents; below is an unselected part. Over the whole deposit, 762 (4.5%) were called active. 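Active calls include both raised and lowered p65 entry, mostly lowered; wells with fewer than 50 cells lack a z-score.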 Raw values vary from plate to plate and are shown uncorrected. Reagent sequences are not shown.

| Gene | PubChem SID | p65 translocation robust z-score | nuclear/cytoplasmic p65 ratio, rep 1 | nuclear/cytoplasmic p65 ratio, rep 2 | low cell count flag | activity call |
| --- | --- | --- | --- | --- | --- | --- |
| Zfp110 | SID315472137 | 1.43 | 1.1 | 1.41 | enough cells to score | inactive |
| Or52r1b | SID315480660 | -0.32 | 1.4 | 1.19 | enough cells to score | inactive |
| Tent4b | SID315477877 | 0.22 | 1.64 | 1.65 | enough cells to score | inactive |
| Spc24 | SID315473134 | – | 0.812 | 1.85 | fewer than 50 cells per well; well left out of scoring | inactive |
| St6gal1 | SID315469234 | -0.98 | 1.33 | 1.5 | enough cells to score | inactive |
| Sfmbt2 | SID315481712 | 0.04 | 1.51 | 1.26 | enough cells to score | inactive |
| Slco5a1 | SID315479520 | – | 1.71 | 1.62 | fewer than 50 cells per well; well left out of scoring | inactive |
| Snap25 | SID315469352 | – | 1.6 | 1.18 | fewer than 50 cells per well; well left out of scoring | inactive |
| Nrbp2 | SID315478273 | 0.47 | 1.73 | 1.47 | enough cells to score | inactive |
| Ufl1 | SID315473063 | – | 1.31 | 1.26 | fewer than 50 cells per well; well left out of scoring | inactive |
| Rtel1 | SID315480853 | 0.54 | 1.73 | 1.66 | enough cells to score | inactive |
| Msgn1 | SID315471383 | -1.01 | 1.6 | 1.46 | enough cells to score | inactive |
| Rnf212 | SID315481573 | 0.08 | 1.58 | 1.5 | enough cells to score | inactive |
| Or8g19 | SID315480470 | – | 1.63 | 1.46 | fewer than 50 cells per well; well left out of scoring | inactive |
| Or8c20 | SID315480503 | 1.21 | 1.51 | 1.49 | enough cells to score | inactive |
| Vrk1 | SID315470015 | – | 1.65 | 1.57 | fewer than 50 cells per well; well left out of scoring | inactive |
| St6galnac3 | SID315469241 | 1.77 | 1.15 | 1.46 | enough cells to score | inactive |
| Katnal2 | SID315474201 | – | 1.17 | 1.41 | fewer than 50 cells per well; well left out of scoring | inactive |
| Gna11 | SID315466938 | 1.21 | 1.51 | 1.61 | enough cells to score | inactive |
| Sumo3 | SID315469348 | 0.37 | 1.44 | 1.29 | enough cells to score | inactive |
| Btc | SID315465677 | – | 1.59 | 1.29 | fewer than 50 cells per well; well left out of scoring | inactive |
| P2ry14 | SID315477151 | -0.52 | 1.48 | 1.46 | enough cells to score | inactive |
| Gphr | SID315473091 | -0.45 | 1.53 | 1.56 | enough cells to score | inactive |
| Il13 | SID315467432 | -0.53 | 1.39 | 1.28 | enough cells to score | inactive |
| Atp10d | SID315478880 | 1.71 | 1.66 | 1.95 | enough cells to score | inactive |

Reformatted: results already given
Katnal2 [SID315474201]: nuclear/cytoplasmic p65 ratio, rep 1 = 1.17; nuclear/cytoplasmic p65 ratio, rep 2 = 1.41; low cell count flag = fewer than 50 cells per well; well left out of scoring; activity call = inactive
Gna11 [SID315466938]: p65 translocation robust z-score = 1.21; nuclear/cytoplasmic p65 ratio, rep 1 = 1.51; nuclear/cytoplasmic p65 ratio, rep 2 = 1.61; low cell count flag = enough cells to score; activity call = inactive

The results go on:
| Gene | PubChem SID | p65 translocation robust z-score | nuclear/cytoplasmic p65 ratio, rep 1 | nuclear/cytoplasmic p65 ratio, rep 2 | low cell count flag | activity call |
| --- | --- | --- | --- | --- | --- | --- |
| Pbld2 | SID315472959 | – | 1.24 | 1.25 | fewer than 50 cells per well; well left out of scoring | inactive |
| Lypd6b | SID315474368 | -2.26 | 1.07 | 1.07 | enough cells to score | active |
| Crtac1 | SID315474636 | -1.25 | 1.33 | 1.64 | enough cells to score | inactive |
| Anln | SID315473623 | 0.23 | 1.69 | 1.61 | enough cells to score | inactive |
| Spam1 | SID315469401 | -0.41 | 1.39 | 1.16 | enough cells to score | inactive |
| Impa1 | SID315471323 | -0.04 | 1.48 | 1.37 | enough cells to score | inactive |
| Psd3 | SID315479152 | -0.08 | 1.58 | 1.51 | enough cells to score | inactive |
| Psd3 | SID315479153 | -0.72 | 1.5 | 1.69 | enough cells to score | inactive |
| Tas2r114 | SID315481859 | – | 1.36 | 1.27 | fewer than 50 cells per well; well left out of scoring | inactive |
| Ppfibp2 | SID315468651 | -0.5 | 1.27 | 1.2 | enough cells to score | inactive |
| Cops3 | SID315470446 | -0.04 | 1.46 | 1.38 | enough cells to score | inactive |
| Wdr19 | SID315477783 | 0.16 | 1.55 | 1.61 | enough cells to score | inactive |
| Mtpn | SID315466850 | 0.17 | 1.78 | 1.64 | enough cells to score | inactive |
| Pkib | SID315468552 | -0.1 | 1.54 | 1.36 | enough cells to score | inactive |
| Krtap9-1 | SID315467707 | -2.29 | 1.23 | 1.12 | enough cells to score | active |
